Some of the results follow. These are further read-outs of the screen, such as a control signal, another cell line or another target. No call is given for them. Most of these compounds were active or inconclusive in the main read-out, so they are no random draw. Potencies come from curve fits of mixed quality, noted in brackets.
Experiment: qHTS Assay for Lipid Storage Modulators in Drosophila S3 Cells;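 as to cell number change: cells counted by Cell Tracker Red CMTPX staining in the red channel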
Settings: BODIPY lipid droplet fluorescence, 18-24 h; for cell number change: measured here: cell count max response, cells fed with added oleic acid
In short: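 Drosophila S3 cells loaded with oleic acid (400 uM, as added) and compounds at several concentrations; lipid droplets imaged by 488-nm laser-scanning cytometry, 500–530 nm intensity and object ratio to cell channel. Percent activity normalized to 20 uM Triacsin C.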

[1] = measured here: cell number channel AC50, cells fed with added oleic acid
[2] = measured here: lipid fluorescence (Fed channel) AC50, cells fed with added oleic acid

SMILES | cell number change [%] | AC50 [1] | AC50 [2]
CCc1cc(Cn2nc(-c3ccccc3)cc2C(=O)O)on1 | -9.04 | 1.3 µM [falling, partial curve] | 1.16 µM [falling, full curve]
COc1ccc(/C=N\NC(=O)c2ccccc2OC)cc1COc1ccccc1C | -12.4 | – | 18.4 µM [falling, single point]
Cc1ccsc1/C=C1\CCc2ccccc2C1=O | 93 | 16.4 µM [rising, partial curve] | 18.4 µM [rising, partial curve]
CC(C)[C@@H]1COC(c2cccc(C3=N[C@H](C(C)C)CO3)n2)=N1 | 13.6 | – | 2.59 µM [rising, full curve, poor fit]
CC1(c2ccccc2)NC(=O)N(CC(=O)N2CCOCC2)C1=O (configuration not stated) | -18.1 | – | 7.31 µM [falling, partial curve]
N#CCCCSc1nnc(-c2ccccn2)o1 | 3.95 | – | –
CCc1ccc(OCCCCCn2ccnc2)cc1 | – | – | 29.1 µM [falling, single point]
CCC(NC(=O)NCc1cccnc1)(C(F)(F)F)C(F)(F)F | 2.46 | – | 29.1 µM [rising, partial curve, poor fit]
Cc1cc(C(=O)NC2CC(C)(C)Cc3c2cnn3-c2ccccc2)n(C)n1 (configuration not stated) | -15.6 | – | 0.58 µM [falling, single point]
COc1cc(OC)c(C2=NOC(C(=O)N3CCCc4ccccc43)C2)cc1Cl (configuration not stated) | -77.4 | 3.66 µM [falling, full curve] | 9.2 µM [falling, partial curve]
CSc1sc(-c2ccnc(SCC(=O)C(C)(C)C)n2)c2c1C(=O)CC(C)(C)C2 | 21.1 | 0.184 µM [rising, full curve, poor fit] | –
O=C(NCCN1C(=O)S/C(=C\c2ccc(Cl)c(Cl)c2)C1=O)c1ccc2c(c1)C(=O)N(Cc1ccncc1)C2=O | -33 | 14.6 µM [falling, single point] | 20.6 µM [falling, single point]
Cc1ccnc(N2CCC(C(=O)Nc3ccc(Oc4ccccc4)cc3)CC2)n1 | 12.5 | – | 29.1 µM [rising, single point]
Nc1ncn([C@H]2C[C@H](O)[C@@H](CO)O2)c(=O)n1 | -30.4 | 0.366 µM [falling, partial curve, poor fit] | 0.184 µM [falling, full curve]
CC(=O)c1ccc(OCC(=O)OCC(=O)N(CC(C)C)c2c(N)n(Cc3ccccc3)c(=O)[nH]c2=O)cc1 | -93.6 | 25.9 µM [falling, partial curve, poor fit] | 29.1 µM [falling, single point]
COc1cc2c(cc1OC)C(=O)N1[C@H]3c4ccccc4OC[C@@H]3[C@H](c3ccccc3)[C@]1(C)C(=O)N2 | 16.5 | – | 16.4 µM [rising, single point]
COc1cc(/C=N/NC(=O)CCc2c(C)n[nH]c2C)ccc1O | 26.3 | – | 29.1 µM [rising, single point]
O=C(Cc1c(Cl)cccc1Cl)Nc1ccncc1 | -2.83 | – | 0.58 µM [falling, single point]
Cn1c(=O)c2c(ncn2CC(=O)OCC(=O)Nc2ccccc2)n(C)c1=O | 29.5 | – | 0.206 µM [rising, full curve, poor fit]
COc1cccc(CC(=O)N2CCCC(CCC(=O)N3CCN(c4ccccn4)CC3)C2)c1 (configuration not stated) | -24.2 | – | 29.1 µM [falling, single point]
COc1cc(/C=N/NC(=O)c2ccc(NC(=O)C3CC3)cc2)ccc1OC(C)=O | 59.9 | 20.6 µM [rising, partial curve] | –
FC(F)(F)c1ccccc1Nc1nccs1 | 36.5 | 25.9 µM [rising, single point] | –
CCC(C)NC(=O)C1CCN(CCCc2ccccc2)CC1 (configuration not stated) | 2.27 | – | –
O=C(COc1ccccc1)N/N=C/c1ccc2c(c1)OCO2 | 46.2 | 20.6 µM [rising, single point] | –
Cc1ccc2nc(NC(=O)c3ccc(N4C(=O)CCC4=O)cc3)sc2c1 | 17.3 | – | –
Cc1cccc(CN2C[C@]34CC[C@@H](C[C@@H]3S2(=O)=O)O4)c1 | – | – | 3.66 µM [falling, full curve]
CC(C)c1ccccc1N1CC(C(=O)O)CC1=O (configuration not stated) | 12.1 | – | 29.1 µM [falling, partial curve]
CCC(=O)Nc1ccccc1Oc1ccccc1 | 1.46 | – | 0.461 µM [rising, partial curve]

Some values from the results shown:
`Cc1ccnc(N2CCC(C(=O)Nc3ccc(Oc4ccccc4)cc3)CC2)n1` – AC50 [2]: 29.1 µM [rising, single point]
`O=C(NCCN1C(=O)S/C(=C\c2ccc(Cl)c(Cl)c2)C1=O)c1ccc2c(c1)C(=O)N(Cc1ccncc1)C2=O` – AC50 [1]: 14.6 µM [falling, single point]

Source: PubChem BioAssay AID2685 (National Center for Advancing Translational Sciences (NCATS), 2010)
